# PubChem BioAssay AID1224828 | NIAID – 2016
# Purpose: 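Regulators linking TLR4 signalling to p65 nuclear translocation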 (primary screen)
# Cells: mouse RAW264.7 G9 macrophage reporter cells (GFP-p65, Tnf promoter-mCherry)
# Knock-down reagent: siRNA pool against mouse genes, 100 nM
# Time to read-out: 2 days siRNA transfection, then 40 min LPS before fixation
# Conditions: LPS (Salmonella minnesota R595) at 10 ng/ml
# Measured: 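Imaged p65 nuclear translocation ratio, normalised to the plate median, converted to robust z-scores and averaged across two replicates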
# Direction: p65 translocation robust z-score: higher = more nuclear NF-kappaB p65 after LPS than the plate median; nuclear/cytoplasmic p65 ratio: higher = more nuclear NF-kappaB p65
# Call rule: 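Active if robust z is above 3.3 (negative regulators) or below -1.56, the Tlr4 control median (positive regulators); activity score 50 or more; control wells not called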
# Meaning of the calls: active = hit (p65 shift raised or lowered); inactive = no clear change
# The deposit covers about 17,000 reagents; this is a part drawn at random. 762 of all reagents (4.5%) count as active. 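Active calls include both raised and lowered p65 entry, mostly lowered; wells with fewer than 50 cells lack a z-score.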 The raw values are shown without normalisation. Entries without a mark were called inactive. The numbers tell different reagents against one gene apart.
gene symbol,reagent,p65 translocation robust z-score,"nuclear/cytoplasmic p65 ratio, rep 1","nuclear/cytoplasmic p65 ratio, rep 2",low cell count flag
Fcho1,1,1.73,1.82,1.72,enough cells to score
Zkscan3,1,0.05,1.4,1.27,enough cells to score
Slc29a1,1,,1.3,1.17,fewer than 50 cells per well; well left out of scoring
Mrm1,1,1.24,1.57,1.67,enough cells to score
Mageb3,1,2.67,2.09,1.98,enough cells to score
Arhgap23,1,-1.12,0.958,1.31,enough cells to score
Cul5,1,0.13,1.56,1.34,enough cells to score
Ahr,1,1.58,1.85,1.87,enough cells to score
A530016L24Rik,1,,1.03,1.32,fewer than 50 cells per well; well left out of scoring
Arhgef4,1,0.39,1.47,1.62,enough cells to score
Arhgef4,2,,1.36,1.53,fewer than 50 cells per well; well left out of scoring
Gm4894,1,-1.32,1.11,1.34,enough cells to score
Atxn3,1,-0.42,1.23,1.43,enough cells to score
Daglb,1,0.25,1.49,1.28,enough cells to score
Nid2,1,0.16,1.63,1.28,enough cells to score
Fam114a1,1,1.14,1.65,1.63,enough cells to score
Tacc1,1,-1.8 (active),1.41,1.29,enough cells to score
Mmut,1,0.82,1.6,1.4,enough cells to score
Naa20,1,0.79,2,1.63,enough cells to score
H4c16,1,-0.1,1.71,1.46,enough cells to score
Adrb1,1,,1.72,1.6,fewer than 50 cells per well; well left out of scoring
Nup210,1,-0.53,1.64,1.21,enough cells to score
Gemin2,1,5.52 (active),1.45,3.25,enough cells to score
Tmem154,1,-0.63,1.37,1.46,enough cells to score
Snap29,1,,1.67,1.44,fewer than 50 cells per well; well left out of scoring
Tgfb1,1,0.08,1.53,1.53,enough cells to score
Dbndd1,1,,1.27,1.68,fewer than 50 cells per well; well left out of scoring
Mrps26,1,0.44,1.7,1.72,enough cells to score
Dnaaf11,1,-0.32,1.67,1.5,enough cells to score
Or8g54,1,0.59,1.4,1.31,enough cells to score
Chpf2,1,,1.31,0.972,fewer than 50 cells per well; well left out of scoring
Ang,1,-0.31,1.6,1.55,enough cells to score
Klc2,1,-0.58,1.38,1.32,enough cells to score
Hbegf,1,-1.08,1.35,1.22,enough cells to score
Sptssa,1,1.1,1.57,1.72,enough cells to score
Tm9sf3,1,,1.22,1.18,fewer than 50 cells per well; well left out of scoring
D3Ertd751e,1,1.31,1.44,1.44,enough cells to score
Or55b10,1,,1.32,0,fewer than 50 cells per well; well left out of scoring
Tbl3,1,2.25,1.83,1.73,enough cells to score
Rbm6,1,-1.09,1.37,1.26,enough cells to score

Single entries from above.
For “p65 translocation robust z-score”, Mrm1 reads 1.24
Arhgap23, nuclear/cytoplasmic p65 ratio, rep 2 = 1.31
